According to the supplement of paper PMC12542422:
Counter-ions that a name gives are not always drawn. ± gives the standard deviation of the averaged measurements. The list shows a part of the results. These are raw signals, not scaled to a control.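 Ribosome-assembly readouts in HeLa cells were imaged via ENP1 staining, with or without export block, or inducible tagged ribosomal protein reporters. Machine learning classified per-cell signal location versus solvent (DMSO) controls. Hits surpassed the DMSO false-positive mean by five standard deviations and were visually confirmed; three biological replicates.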

The compounds below were run on HeLa RPS2-YFP reporter (assay: fraction of reporter-positive cells with nuclear (nucleolar or nucleolar/nucleoplasmic) RPS2-YFP (MainHitrate); higher = more cells with nucleolar/nuclear readout signal (for ENP1 -LMB: less RNAPI inhibition; for +LMB ENP1 and RP reporters: stronger nuclear/nucleolar retention, i.e. ribosome biogenesis defect)). Settings: concentration: 1 µM; treatment time: 6 h.
With `NCCc1ccc(O)c(O)c1` [Dopamine hydrochloride (Inotropin)] the “fraction of reporter-positive cells with nuclear” value (from here on “fraction”) was 0.108 ± 0.072. In the case of `O=C1[C@@H]2[C@H]3CC[C@H](C3)[C@@H]2C(=O)N1C[C@@H]1CCCC[C@H]1CN1CCN(c2nsc3ccccc23)CC1` [Lurasidone HCl], the “fraction” value is reported as 0.143 ± 0.1. `Nc1nnc(-c2cccc(Cl)c2Cl)c(N)n1` [Lamotrigine] was tested, and the “fraction” value was 0.126 ± 0.099. In the case of `CCOc1ccc2nc3cc(N)ccc3c(N)c2c1` [Ethacridine lactate monohydrate], the “fraction” value is reported as 0.124 ± 0.12. With `NC(=O)OCC(COC(N)=O)c1ccccc1` [Felbamate] the “fraction” value was 0.0983 ± 0.062. With `CC#CCn1c(N2CCC[C@@H](N)C2)nc2c1c(=O)n(Cc1nc(C)c3ccccc3n1)c(=O)n2C` [Linagliptin (BI-1356)] the “fraction” value was 0.119 ± 0.099. For `CCOc1cc(CC(=O)N[C@@H](CC(C)C)c2ccccc2N2CCCCC2)ccc1C(=O)O` [Repaglinide], the “fraction” value was 0.148 ± 0.086. In the case of `CC=CC1=C(C(=O)O)N2C(=O)[C@@H](NC(=O)[C@H](N)c3ccc(O)cc3)[C@H]2SC1` [Cefprozil hydrate (Cefzil)], the “fraction” value is reported as 0.117 ± 0.064. `Nc1ncnc2c1ncn2[C@@H]1O[C@H](COP(=O)(O)OP(=O)(O)OP(=O)(O)O)[C@@H](O)[C@H]1O` [ATP (Adenosine-Triphosphate)] was tested, and the “fraction” value was 0.112 ± 0.086. For `CCCCCCCCCCCCCCCC[N+](C)(C)CCN(Cc1ccc(OC)cc1)c1ncccn1` [Thonzonium Bromide], the “fraction” value was 0.17 ± 0.15. For `Cc1onc(-c2ccccc2Cl)c1C(=O)N[C@@H]1C(=O)N2[C@@H]1SC(C)(C)[C@@H]2C(=O)O` [Cloxacillin sodium (Cloxacap)], the “fraction” value was 0.0964 ± 0.042.
